Reference: PubChem BioAssay AID743121 (NCATS, 2013)
Purpose: 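Partners whose loss is lethal together with topoisomerase I blockade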 (primary screen). System: MDA-MB-231 cells, a human breast cancer line. Reagent: single siRNA against human genes, 20 nM siRNA (0.8 pmol per well). Duration: 120 h (drug added 48 h after transfection, read 72 h later). Challenge: camptothecin 20 nM (about EC30) for 72 h; vehicle 0.1% DMSO in parallel plates. Measurement: 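Cell viability by ATP luminescence (CellTiter-Glo) as % of non-targeting siRNA wells, and the log2 ratio of viability without drug over viability with camptothecin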. Reading the numbers: log2 vehicle/camptothecin viability: higher = stronger sensitisation to camptothecin. Hit rule: 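Active genes have an RSA gene-level p-value below 0.001, computed from the ratios of their separate siRNAs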.
Here is an unselected part of about 26,000 reagents. In the full data, 167 (0.63%) are marked active. 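Calls are per gene from RSA p-values that are not deposited; an individual active-marked siRNA can sensitise only weakly.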 Unmarked entries are inactive. The numbers tell different reagents against one gene apart. Not all columns of the deposit are shown.

With BRMS1 (BRMS1 transcriptional repressor and anoikis regulator) #1, what was measured?
log2 vehicle/camptothecin viability: -0.162

What is on record for BRMS1 (BRMS1 transcriptional repressor and anoikis regulator) #2?
log2 vehicle/camptothecin viability: -0.132

For BRMS1 (BRMS1 transcriptional repressor and anoikis regulator) #3, what does the deposit list?
log2 vehicle/camptothecin viability: 0.00333

With BRMS1 (BRMS1 transcriptional repressor and anoikis regulator) #4, how do the results read?
log2 vehicle/camptothecin viability: -0.0976

What is on record for PRSS1 (serine protease 1) #1?
log2 vehicle/camptothecin viability: -0.344

Which result is listed for PRSS1 (serine protease 1) #2?
log2 vehicle/camptothecin viability: 0.0865

With PRSS1 (serine protease 1) #3, what was measured?
log2 vehicle/camptothecin viability: -0.356

For PRSS1 (serine protease 1) #4, how do the results read?
log2 vehicle/camptothecin viability: -0.155

With PRSS1 (serine protease 1) #5, what was measured?
log2 vehicle/camptothecin viability: 0.433

How did the screen score CPE (carboxypeptidase E) #1?
log2 vehicle/camptothecin viability: -0.61

With CPE (carboxypeptidase E) #2, what does the deposit list?
log2 vehicle/camptothecin viability: 0.0219

For CPE (carboxypeptidase E) #3, how do the results read?
log2 vehicle/camptothecin viability: -0.308

With CPE (carboxypeptidase E) #4, what does the deposit list?
log2 vehicle/camptothecin viability: -0.371

With MRGPRX2 (MAS related GPR family member X2) #1, what does the deposit list?
log2 vehicle/camptothecin viability: 0.094

How did the screen score MRGPRX2 (MAS related GPR family member X2) #2?
log2 vehicle/camptothecin viability: -0.599

Which result is listed for MRGPRX2 (MAS related GPR family member X2) #3?
log2 vehicle/camptothecin viability: -0.369

With MRGPRX2 (MAS related GPR family member X2) #4, what does the deposit list?
log2 vehicle/camptothecin viability: 1.01

What did the screen give for NMBR (neuromedin B receptor) #1?
log2 vehicle/camptothecin viability: 0.00467

With NMBR (neuromedin B receptor) #2, what was measured?
log2 vehicle/camptothecin viability: 0.0933

With NMBR (neuromedin B receptor) #3, what does the deposit list?
log2 vehicle/camptothecin viability: -0.241

With NMBR (neuromedin B receptor) #4, what was measured?
log2 vehicle/camptothecin viability: -0.293

Which result is listed for PLP1 (proteolipid protein 1) #1?
log2 vehicle/camptothecin viability: 0.00399

With PLP1 (proteolipid protein 1) #2, what does the deposit list?
log2 vehicle/camptothecin viability: 0.058

How did the screen score PLP1 (proteolipid protein 1) #3?
log2 vehicle/camptothecin viability: 0.325

What did the screen give for PLP1 (proteolipid protein 1) #4?
log2 vehicle/camptothecin viability: 0.539
